{"sequences": {"note": "Chains of the proteins cited; added tags and fusions are not shown.", "UniProt Q8CIG8": "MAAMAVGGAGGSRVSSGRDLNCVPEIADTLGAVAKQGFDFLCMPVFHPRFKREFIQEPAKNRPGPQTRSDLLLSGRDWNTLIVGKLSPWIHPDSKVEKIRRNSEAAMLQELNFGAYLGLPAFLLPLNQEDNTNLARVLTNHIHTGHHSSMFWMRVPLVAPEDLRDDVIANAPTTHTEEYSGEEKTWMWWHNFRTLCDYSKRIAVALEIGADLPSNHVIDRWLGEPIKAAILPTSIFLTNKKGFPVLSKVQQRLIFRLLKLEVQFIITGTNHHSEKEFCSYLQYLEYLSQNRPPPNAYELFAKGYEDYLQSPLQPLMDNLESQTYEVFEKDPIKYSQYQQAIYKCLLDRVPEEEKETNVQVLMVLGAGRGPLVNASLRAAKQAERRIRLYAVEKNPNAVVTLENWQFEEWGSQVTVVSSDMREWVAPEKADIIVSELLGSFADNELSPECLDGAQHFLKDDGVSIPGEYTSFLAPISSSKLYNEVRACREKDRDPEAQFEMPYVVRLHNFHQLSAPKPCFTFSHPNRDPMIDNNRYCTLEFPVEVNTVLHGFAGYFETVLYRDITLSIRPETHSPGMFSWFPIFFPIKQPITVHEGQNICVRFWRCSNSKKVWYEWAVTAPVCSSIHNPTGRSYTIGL", "UniProt Q9JMB7": "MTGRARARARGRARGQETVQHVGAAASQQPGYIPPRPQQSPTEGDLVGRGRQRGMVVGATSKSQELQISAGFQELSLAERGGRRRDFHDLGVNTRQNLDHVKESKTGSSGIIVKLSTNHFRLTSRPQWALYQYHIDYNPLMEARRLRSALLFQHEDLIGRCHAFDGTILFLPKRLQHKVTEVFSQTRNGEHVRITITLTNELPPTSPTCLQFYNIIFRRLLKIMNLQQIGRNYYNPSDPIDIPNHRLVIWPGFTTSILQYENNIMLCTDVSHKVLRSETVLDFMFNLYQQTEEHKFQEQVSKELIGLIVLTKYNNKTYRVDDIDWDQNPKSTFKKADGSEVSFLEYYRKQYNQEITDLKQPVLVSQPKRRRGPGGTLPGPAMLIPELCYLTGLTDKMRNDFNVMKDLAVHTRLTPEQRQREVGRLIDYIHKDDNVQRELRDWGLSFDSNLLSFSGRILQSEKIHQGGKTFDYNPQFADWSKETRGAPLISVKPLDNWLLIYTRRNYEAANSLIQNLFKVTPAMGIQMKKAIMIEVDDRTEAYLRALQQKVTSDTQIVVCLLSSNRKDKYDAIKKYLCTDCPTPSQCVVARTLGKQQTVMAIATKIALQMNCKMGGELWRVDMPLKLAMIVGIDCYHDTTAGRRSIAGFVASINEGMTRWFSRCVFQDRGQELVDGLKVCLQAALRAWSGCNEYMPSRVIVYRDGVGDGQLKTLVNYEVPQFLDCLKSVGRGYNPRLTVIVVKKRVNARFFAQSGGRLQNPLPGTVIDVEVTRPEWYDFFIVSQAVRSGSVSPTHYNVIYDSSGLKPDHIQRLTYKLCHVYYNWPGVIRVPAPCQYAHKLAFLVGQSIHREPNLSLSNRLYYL", "UniProt Q8CDG1": "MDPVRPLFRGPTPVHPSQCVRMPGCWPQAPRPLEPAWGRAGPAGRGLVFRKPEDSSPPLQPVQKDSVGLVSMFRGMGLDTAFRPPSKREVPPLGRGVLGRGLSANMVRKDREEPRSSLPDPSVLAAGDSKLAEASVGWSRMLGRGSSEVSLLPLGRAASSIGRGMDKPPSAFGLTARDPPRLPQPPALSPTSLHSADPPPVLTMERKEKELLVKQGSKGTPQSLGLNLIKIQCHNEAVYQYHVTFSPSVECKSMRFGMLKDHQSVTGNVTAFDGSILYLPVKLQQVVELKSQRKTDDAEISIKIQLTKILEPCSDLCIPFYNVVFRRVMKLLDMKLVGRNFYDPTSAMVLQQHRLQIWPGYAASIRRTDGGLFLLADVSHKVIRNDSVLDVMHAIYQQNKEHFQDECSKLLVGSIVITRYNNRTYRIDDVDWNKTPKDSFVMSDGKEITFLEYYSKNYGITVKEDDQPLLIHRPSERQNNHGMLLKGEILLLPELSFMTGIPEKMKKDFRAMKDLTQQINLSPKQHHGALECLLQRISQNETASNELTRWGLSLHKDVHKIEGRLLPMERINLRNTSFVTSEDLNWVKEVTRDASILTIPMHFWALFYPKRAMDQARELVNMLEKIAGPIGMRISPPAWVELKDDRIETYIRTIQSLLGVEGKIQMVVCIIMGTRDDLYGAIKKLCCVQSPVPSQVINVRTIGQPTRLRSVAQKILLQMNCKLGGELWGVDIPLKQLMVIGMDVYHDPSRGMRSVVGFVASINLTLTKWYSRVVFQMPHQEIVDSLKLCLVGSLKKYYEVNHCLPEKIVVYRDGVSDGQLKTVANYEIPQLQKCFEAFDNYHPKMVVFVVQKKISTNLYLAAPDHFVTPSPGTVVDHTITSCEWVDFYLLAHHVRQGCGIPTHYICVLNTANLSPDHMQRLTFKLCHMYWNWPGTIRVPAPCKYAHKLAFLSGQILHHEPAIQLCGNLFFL"}, "source": "paper PMC6797737", "key": {"[1]": {"target": "PRMT5 (mouse (endogenous in testes)) (UniProt Q8CIG8)", "test": "co-IP; lysate of adult mouse testes (control and Uhrf1 cKO) in IP buffer (20 mM HEPES, 150 mM NaCl, 2 mM magnesium acetate, 0.2% NP-40, 1 mM DTT, pH 7.3); primary antibody overnight at 4 °C, protein A beads; western blot"}, "[2]": {"target": "T1, UHRF1 (ubiquitin-like, containing PHD and RING finger domains 1) (mouse (endogenous in testes)) (UniProt Q8VDF2)", "T1 sequence": "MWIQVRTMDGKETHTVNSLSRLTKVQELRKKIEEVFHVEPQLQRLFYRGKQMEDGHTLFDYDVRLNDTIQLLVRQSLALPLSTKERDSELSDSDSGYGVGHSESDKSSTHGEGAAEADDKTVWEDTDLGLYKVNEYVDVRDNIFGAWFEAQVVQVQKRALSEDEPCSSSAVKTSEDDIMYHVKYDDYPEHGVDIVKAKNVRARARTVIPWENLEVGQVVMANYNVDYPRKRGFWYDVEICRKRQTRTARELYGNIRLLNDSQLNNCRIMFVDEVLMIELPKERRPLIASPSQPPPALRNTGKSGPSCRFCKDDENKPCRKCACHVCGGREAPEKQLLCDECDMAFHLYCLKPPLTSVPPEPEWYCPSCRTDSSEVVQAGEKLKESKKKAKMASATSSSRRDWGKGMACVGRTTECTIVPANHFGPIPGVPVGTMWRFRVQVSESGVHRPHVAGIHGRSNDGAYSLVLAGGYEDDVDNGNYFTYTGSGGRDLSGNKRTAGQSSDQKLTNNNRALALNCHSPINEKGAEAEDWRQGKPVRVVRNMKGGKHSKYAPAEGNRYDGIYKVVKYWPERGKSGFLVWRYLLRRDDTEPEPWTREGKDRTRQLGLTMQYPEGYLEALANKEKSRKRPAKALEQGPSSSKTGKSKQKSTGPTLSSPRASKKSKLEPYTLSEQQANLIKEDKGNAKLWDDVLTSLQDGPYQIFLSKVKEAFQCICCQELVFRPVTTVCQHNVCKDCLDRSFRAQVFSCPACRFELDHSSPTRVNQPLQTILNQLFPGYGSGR", "test": "co-IP; lysate of adult mouse testes (control and Uhrf1 cKO) in IP buffer (20 mM HEPES, 150 mM NaCl, 2 mM magnesium acetate, 0.2% NP-40, 1 mM DTT, pH 7.3); primary antibody overnight at 4 °C, protein A beads; western blot"}, "MYC-tagged PRMT5": {"target": "MYC-tagged PRMT5 (UniProt Q8CIG8)", "test": "co-IP; HEK293T cells co-transfected with FLAG- and MYC-tagged plasmids, 48 h; immunoprecipitation with anti-MYC antibody; western blot with anti-FLAG and anti-MYC"}, "[3]": {"target": "MIWI (mouse (endogenous in testes)) (UniProt Q9JMB7)", "test": "co-IP; lysate of adult mouse testes (control and Uhrf1 cKO) in IP buffer (20 mM HEPES, 150 mM NaCl, 2 mM magnesium acetate, 0.2% NP-40, 1 mM DTT, pH 7.3); primary antibody overnight at 4 °C, protein A beads; western blot"}, "[4]": {"target": "MILI (mouse (endogenous in testes)) (UniProt Q8CDG1)", "test": "co-IP; lysate of adult mouse testes (control and Uhrf1 cKO) in IP buffer (20 mM HEPES, 150 mM NaCl, 2 mM magnesium acetate, 0.2% NP-40, 1 mM DTT, pH 7.3); primary antibody overnight at 4 °C, protein A beads; western blot"}}, "note": "Results are given in words; binding and its absence hold for the method and conditions named. In cells and extracts the contact can be indirect. Some binding calls cover weakened binding; strength is not graded here. For some of these results: Tags and fused reporters may be left off the sequences shown.", "data": [{"molecule": "MIWI (from UniProt Q9JMB7 1-862)", "values": [{"measurement": "binding", "setting": "[1]", "value": "binds"}, {"measurement": "binding", "setting": "[2]", "value": "binds"}]}, {"molecule": "FLAG-tagged UHRF1 (protein, UniProt Q8VDF2 1-782) MWIQVRTMDGKETHTVNSLSRLTKVQELRKKIEEVFHVEPQLQRLFYRGKQMEDGHTLFDYDVRLNDTIQLLVRQSLALPLSTKERDSELSDSDSGYGVGHSESDKSSTHGEGAAEADDKTVWEDTDLGLYKVNEYVDVRDNIFGAWFEAQVVQVQKRALSEDEPCSSSAVKTSEDDIMYHVKYDDYPEHGVDIVKAKNVRARARTVIPWENLEVGQVVMANYNVDYPRKRGFWYDVEICRKRQTRTARELYGNIRLLNDSQLNNCRIMFVDEVLMIELPKERRPLIASPSQPPPALRNTGKSGPSCRFCKDDENKPCRKCACHVCGGREAPEKQLLCDECDMAFHLYCLKPPLTSVPPEPEWYCPSCRTDSSEVVQAGEKLKESKKKAKMASATSSSRRDWGKGMACVGRTTECTIVPANHFGPIPGVPVGTMWRFRVQVSESGVHRPHVAGIHGRSNDGAYSLVLAGGYEDDVDNGNYFTYTGSGGRDLSGNKRTAGQSSDQKLTNNNRALALNCHSPINEKGAEAEDWRQGKPVRVVRNMKGGKHSKYAPAEGNRYDGIYKVVKYWPERGKSGFLVWRYLLRRDDTEPEPWTREGKDRTRQLGLTMQYPEGYLEALANKEKSRKRPAKALEQGPSSSKTGKSKQKSTGPTLSSPRASKKSKLEPYTLSEQQANLIKEDKGNAKLWDDVLTSLQDGPYQIFLSKVKEAFQCICCQELVFRPVTTVCQHNVCKDCLDRSFRAQVFSCPACRFELDHSSPTRVNQPLQTILNQLFPGYGSGR", "values": [{"measurement": "binding", "setting": "MYC-tagged PRMT5", "value": "binds"}]}, {"molecule": "UHRF1 (ubiquitin-like, containing PHD and RING finger domains 1) (protein, UniProt Q8VDF2 1-782) MWIQVRTMDGKETHTVNSLSRLTKVQELRKKIEEVFHVEPQLQRLFYRGKQMEDGHTLFDYDVRLNDTIQLLVRQSLALPLSTKERDSELSDSDSGYGVGHSESDKSSTHGEGAAEADDKTVWEDTDLGLYKVNEYVDVRDNIFGAWFEAQVVQVQKRALSEDEPCSSSAVKTSEDDIMYHVKYDDYPEHGVDIVKAKNVRARARTVIPWENLEVGQVVMANYNVDYPRKRGFWYDVEICRKRQTRTARELYGNIRLLNDSQLNNCRIMFVDEVLMIELPKERRPLIASPSQPPPALRNTGKSGPSCRFCKDDENKPCRKCACHVCGGREAPEKQLLCDECDMAFHLYCLKPPLTSVPPEPEWYCPSCRTDSSEVVQAGEKLKESKKKAKMASATSSSRRDWGKGMACVGRTTECTIVPANHFGPIPGVPVGTMWRFRVQVSESGVHRPHVAGIHGRSNDGAYSLVLAGGYEDDVDNGNYFTYTGSGGRDLSGNKRTAGQSSDQKLTNNNRALALNCHSPINEKGAEAEDWRQGKPVRVVRNMKGGKHSKYAPAEGNRYDGIYKVVKYWPERGKSGFLVWRYLLRRDDTEPEPWTREGKDRTRQLGLTMQYPEGYLEALANKEKSRKRPAKALEQGPSSSKTGKSKQKSTGPTLSSPRASKKSKLEPYTLSEQQANLIKEDKGNAKLWDDVLTSLQDGPYQIFLSKVKEAFQCICCQELVFRPVTTVCQHNVCKDCLDRSFRAQVFSCPACRFELDHSSPTRVNQPLQTILNQLFPGYGSGR", "values": [{"measurement": "binding", "setting": "[3]", "value": "binds"}, {"measurement": "binding", "setting": "[4]", "value": "binds"}, {"measurement": "binding", "setting": "[1]", "value": "binds"}]}, {"molecule": "TDRKH (protein, UniProt Q80VL1 1-560) MSTERTSWTNLSTIQKIALGLGIPASATVAYILYRRYRESREERLTFVGEDDIEIEMRVPQEAVKLIIGRQGANIKQLRKQTGARIDVDTEDVGDERVLLISGFPVQVCKAKAAIHQILTENTPVFEQLSVPQRSVGRIIGRGGETIRSICKASGAKITCDKESEGTLLLSRLIKISGTQKEVAAAKHLILEKVSEDEELRKRIAHSAETRVPRKQPISVRREEVTEPGGAGEAALWKNTNSSMGPATPLEVPLRKGGGDMVVVGPKEGSWEKPNDDSFQNSGAQSSPETSMFEIPSPDFSFHADEYLEVYVSASEHPNHFWIQIIGSRSLQLDKLVSEMTQHYENSLPEDLTVHVGDIVAAPLSTNGSWYRARVLGTLENGNLDLYFVDFGDNGDCALKDLRALRSDFLSLPFQAIECSLARIAPTGEEWEEEALDEFDRLTHCADWKPLVAKISSYVQTGISTWPKIYLYDTSDEKKLDIGLELVRKGYAVELPEDMEENRTVPNMLKDMATETDDSLASILTETKKSPEEMPHTLSCLSLSEAASMSGDDNLEDDLF", "values": [{"measurement": "binding", "setting": "[2]", "value": "binds"}]}]}
